According to PMC7806630, “Molecular basis of the interaction of the human tyrosine phosphatase PTPN3 with the hepatitis B virus core protein” (Scientific Reports, 2021):
Results are given in words; binding and its absence hold for the method and conditions named. For part of these data: Binding seen in cells or lysates may run through a third protein. Some results given as binding are weak or reduced against the parent protein; the word gives no strength.

Chains of the proteins cited; added tags and fusions are not shown. Residues count along the entry.
UniProt Q6ZWJ1, residues 19-105: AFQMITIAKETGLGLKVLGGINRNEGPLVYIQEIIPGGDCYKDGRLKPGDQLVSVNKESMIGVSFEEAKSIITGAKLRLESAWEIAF
UniProt Q6P0Q8, residues 1104-1192: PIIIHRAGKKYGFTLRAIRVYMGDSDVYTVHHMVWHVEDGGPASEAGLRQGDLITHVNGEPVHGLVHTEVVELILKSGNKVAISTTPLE
PDZ domain of PTPN3 (PTPN3-PDZ), residues 489-597 (P26045, residues 489-597): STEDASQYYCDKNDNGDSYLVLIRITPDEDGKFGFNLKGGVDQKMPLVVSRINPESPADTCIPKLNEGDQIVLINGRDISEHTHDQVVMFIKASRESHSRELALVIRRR
PDZ domain of PTPN3, residues 504-597, of the holdup assay (P26045, residues 504-597): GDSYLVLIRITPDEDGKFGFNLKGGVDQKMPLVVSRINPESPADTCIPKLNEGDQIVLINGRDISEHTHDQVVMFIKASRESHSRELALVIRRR
UniProt P03146: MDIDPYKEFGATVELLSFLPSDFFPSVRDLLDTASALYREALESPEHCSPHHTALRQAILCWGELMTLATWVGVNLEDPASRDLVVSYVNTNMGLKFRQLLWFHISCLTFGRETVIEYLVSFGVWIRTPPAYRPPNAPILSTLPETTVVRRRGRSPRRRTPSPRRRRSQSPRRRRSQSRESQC

B1: PDZ domain of alpha-1-syntrophin (SNTA1) (domain or fragment, UniProt Q13424 87-170)
chain: RVTVRKADAGGLGISIKGGRENKMPILISKIFKGLAADQTEALFVGDAILSVNGEDLSSATHDEAVQVLKKTGKEVVLEVKYMK
B2: PDZ domain of beta-1-syntrophin (SNTB1) (domain or fragment, UniProt Q13884 112-195)
chain: GVKVLKQELGGLGISIKGGKENKMPILISKIFKGLAADQTQALYVGDAILSVNGADLRDATHDEAVQALKRAGKEVLLEVKYMR
B3: PDZ domain of Synaptojanin-2-binding protein (SYNJ2BP) (domain or fragment, UniProt P57105 13-100)
chain: EINLTRGPSGLGFNIVGGTDQQYVSNDSGIYVSRIKENGAAALDGRLQEGDKILSVNGQDLKNLLHQDAVDLFRNAGYAVSLRVQHRL
B4: PDZ domain of Signal-induced proliferation-associated 1-like protein 2 (SIPA1L2) (domain or fragment, UniProt Q9P2F8 950-1026)
chain: EMTLRRNGLGQLGFHVNFEGIVADVEPFGFAWKAGLRQGSRLVEICKVAVATLTHEQMIDLLRTSVTVKVVIIQPHD
B5: PDZ domain of beta-2-syntrophin (SNTB2) (domain or fragment, UniProt Q13425 115-198)
chain: RVRVVKQEAGGLGISIKGGRENRMPILISKIFPGLAADQSRALRLGDAILSVNGTDLRQATHDQAVQALKRAGKEVLLEVKFIR
B6: PDZ domain of GIPC2 (domain or fragment, UniProt Q8TF65 117-197)
chain: EVNVYKSEDSLGLTITDNGVGYAFIKRIKDGGVIDSVKTICVGDHIESINGENIVGWRHYDVAKKLKELKKEELFTMKLIE
B7: PDZ domain of GIPC1 (domain or fragment, UniProt O14908 133-213)
chain: EVEVFKSEDALGLTITDNGAGYAFIKRIKEGSVIDHIHLISVGDMIEAINGQSLLGCRHYEVARLLKELPRGRTFTLKLTE

biological target: T1, biotinylated PBM-HBc peptide (hepatitis B virus); test: holdup assay; automated high-throughput holdup assay, biotinylated PBM-HBc peptide against the human PDZ domain library, duplicates; threshold binding intensity 0.2
T1 sequence (peptide, biotin (position not stated)): RRRRSQSRESQC

Question: With “PDZ domain of Syntaxin-binding protein 4 (STXB4) (from UniProt Q6ZWJ1 19-105) (domain or fragment)” as the molecule, how does the binding read?
Answer: binds

Question: “PDZ domain of Microtubule-associated serine/threonine-protein kinase 2 (MAST2) (from UniProt Q6P0Q8 1104-1192) (domain or fragment)” was tested. Which binding did it give?
Answer: binds

Question: How did the binding turn out when “PDZ domain of PTPN3, residues 504-597, of the holdup assay (from UniProt P26045 504-597) (domain or fragment)” was run?
Answer: binds

Question: With B1 as the molecule, how does the binding read?
Answer: binds

Question: For B2, which binding is on record?
Answer: binds

Question: With B3 as the molecule, how does the binding read?
Answer: binds

Question: With B4 as the molecule, how does the binding read?
Answer: binds

Question: B5 was tested. Which binding did it give?
Answer: binds

Question: How did the binding turn out when B6 was run?
Answer: binds

Question: Which binding does the source give for B7 here?
Answer: binds

biological target: GST-tagged PTPN3 PDZ domain (GST-PTPN3-PDZ) (human) (UniProt P26045); test: pull-down; only the target purified

Question: “HA-Flag-tagged wild-type full-length HBc (HF-HBc WT) (from UniProt P03146 1-183)” was tested. Which binding did it give?
Answer: binds

biological target: PDZ domain of PTPN3 (PTPN3-PDZ), residues 489-597 (human) (UniProt P26045); test: NMR titration; 1H,15N HSQC-TROSY of 15N-labelled PTPN3-PDZ (95 uM) with unlabelled full-length HBc as CLPs added to ratios PDZ:HBc 1:0, 1:1.4, 1:5.6, 1:19.4; 20 °C; both purified

Question: For “full-length HBc (hepatitis B virus core protein) assembled into capsid-like particles (from UniProt P03146 1-183)”, which binding is on record?
Answer: binds
